These results are taken from patent US8574925B2, “Fluorescence analysis method using fluorescent-activating antibodies” (Hamamatsu Photonics K.K., priority 2002, dated 2013).

Data set [1] has as its system anti-MG-Ins Fab. Kind of data set: Calibration curve: insulin concentration vs MG fluorescence intensity with anti-MG-Ins Fab and malachite green. It counts as binding, guinea pig. The note with it: 1 μM anti-MG-Ins Fab, 0.4 μM MG. Here is the method: A calibration curve, indicating the relationship between the insulin concentration and fluorescence intensity for a fixed amount (1 μM) of the anti-MG-Ins Fab and a fixed amount (0.4 μM) of MG, was prepared as follows. Since the insulin used forms aggregate of a few molecules because of containing zinc, the insulin was dissolved in advance in PB containing SDS at a final concentration of 0.1% to dissociate the aggregate. The insulin solution thus obtained was thereafter run through a gel permeation column (Fast Desaliting Column HR 10/10, made by Pharnacia), equilibrated using PBS. The insulin solution from which SDS was thus removed was used in the following quantification. • (1) The fluorescence spectrophotometer was set to an excitation wavelength of 620 nm and a fluorescence wavelength of 650 nm and the temperature of the cell holder was maintained at a fixed temperature (25° C.). • (2) 2 ml (A=2 ml) of an antibody-dye solution, containing 1 μM (Y=1 μM) of the anti-MG-Ins Fab and 0.4 μM (Z=0.4 μM) of MG, were prepared (with phosphate buffered saline (pH 7.2, PBS) as the solvent) (S101). • (3) The antibody-dye solution thus obtained was placed in a standard fluorescence measurement cell. This cell was set in the fluorescence spectrophotometer. The solution in the cell was stirred for 30 seconds with a micro stirring bar. […]

For data set [2], the system named is anti-MG-Ins Fab. In words: Calibration curve: insulin concentration vs AO fluorescence intensity with anti-MG-Ins Fab and auramine O. It is filed as binding, guinea pig. The conditions noted are these: 2 μM anti-MG-Ins Fab, 0.4 μM AO. Here is the method: A calibration curve was prepared for insulin concentrations in the range of 0 to 7.7 μM in the same manner as described above in [1-10-1] other than the changes of setting the anti-MG-Ins Fab concentration to 2 μM, using 0.4 μM of auramine O in place of 0.4 μM of malachite green, setting the excitation wavelength to 400 nm, and setting the fluorescence wavelength to 520 nm.

Take insulin: the detection sensitivity entry with anti-MG-Ins Fab [1] and in the data set on anti-MG-Ins Fab [2] was “approx. 0.1 μM” throughout. In addition, the “low insulin concentration at which quantification is possible” value in the data set with anti-MG-Ins Fab [1] and with anti-MG-Ins Fab [2] was “approximately 0.13 μM” each time.
